These are yes or no findings as the source states them, for the method shown. Binding seen in cells or lysates may run through a third protein.
Target: VN (I152L)-ANXA2 (ANXA2-full length in pBiFC-VN155 (I152L)) (human) (UniProt P07355)
Test: split reporter; BiFC: pBiFC-VC155 and pBiFC-VN155 (I152L) constructs co-transfected into HEK293T cells, fluorescence microscopy after 48 h

Chains of the proteins cited; added tags and fusions are not shown. Lines headed by an entry give the natural chain unless they say otherwise; changes in a name come on top.
UniProt P07355: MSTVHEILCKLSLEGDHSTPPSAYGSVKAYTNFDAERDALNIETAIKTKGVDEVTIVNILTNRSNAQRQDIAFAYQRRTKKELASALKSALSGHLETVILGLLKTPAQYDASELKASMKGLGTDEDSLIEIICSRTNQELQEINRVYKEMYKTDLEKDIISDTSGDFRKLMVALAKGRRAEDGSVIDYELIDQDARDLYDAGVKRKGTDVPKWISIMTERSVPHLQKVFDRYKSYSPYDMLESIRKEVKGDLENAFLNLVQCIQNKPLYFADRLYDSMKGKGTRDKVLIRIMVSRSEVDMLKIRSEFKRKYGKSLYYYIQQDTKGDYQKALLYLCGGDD
UniProt P29279: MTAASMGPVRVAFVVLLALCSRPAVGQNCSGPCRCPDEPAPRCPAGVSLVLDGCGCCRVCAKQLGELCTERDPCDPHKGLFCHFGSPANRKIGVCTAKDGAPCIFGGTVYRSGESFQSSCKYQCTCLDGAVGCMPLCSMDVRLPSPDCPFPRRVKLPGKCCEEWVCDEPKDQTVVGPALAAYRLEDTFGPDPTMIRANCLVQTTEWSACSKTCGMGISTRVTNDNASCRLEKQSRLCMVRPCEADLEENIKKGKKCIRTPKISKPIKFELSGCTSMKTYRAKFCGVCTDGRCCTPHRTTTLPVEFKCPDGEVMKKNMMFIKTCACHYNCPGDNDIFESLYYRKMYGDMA

- binding: no binding
Substance: VC155-CTGF-∆TSP1 (CTGF-∆TSP1 in pBiFC-VC155) (from UniProt P29279)

— PMC8547044
